Test results taken from patent publication US20090035319A1.
Results are given in words; binding and its absence hold for the method and conditions named. Some binding calls cover weakened binding; strength is not graded here.

Target: T1, C3a Receptor polypeptide (SEQ ID NO:2) (human) (UniProt Q16581)
T1 sequence: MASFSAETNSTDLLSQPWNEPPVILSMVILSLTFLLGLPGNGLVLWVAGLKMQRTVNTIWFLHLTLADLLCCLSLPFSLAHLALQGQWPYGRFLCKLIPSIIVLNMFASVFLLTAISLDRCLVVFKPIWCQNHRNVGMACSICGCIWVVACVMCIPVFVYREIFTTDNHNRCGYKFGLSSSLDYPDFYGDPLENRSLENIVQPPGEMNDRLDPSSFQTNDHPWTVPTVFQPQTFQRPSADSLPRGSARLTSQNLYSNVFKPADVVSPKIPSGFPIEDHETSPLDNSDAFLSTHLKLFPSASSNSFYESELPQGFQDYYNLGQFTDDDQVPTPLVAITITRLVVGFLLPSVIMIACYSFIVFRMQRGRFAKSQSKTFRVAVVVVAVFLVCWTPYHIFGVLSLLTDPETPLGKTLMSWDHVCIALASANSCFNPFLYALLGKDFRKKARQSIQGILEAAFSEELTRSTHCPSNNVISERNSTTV
Assay: phage display selection; no assay details or data reported

binding: binds
B1: scFv D098G01 (scFv)
scFv: EVQLVQSGAEVRKPGASVKVSCKASGYSFTNYGITWVRQAPGQGLEWMGWISGYNGDTNYAQKLQGRVTMTTDTSTNTAYMELRSLRSDDTAIYYCTRDLPGLNWAYSYDYMDVWGRGTLVTVSSGGGGSGGGGSGGGGSAQAVLTQPSSLSASPGTSASLTCTLRSGINVGTYRIYWYQQKPGSPPHFLLRYKSDSDKQQGSGVPSRFSGSKDASANAGILLISGLQSDDEADYYCMIWHSSAWVFGGGTKVTVLG
